Results are given in words; binding and its absence hold for the method and conditions named. Binding seen in cells or lysates may run through a third protein. Some entries that bind do so weakly or less than the wild type.
T1: Apoptosis-Stimulating of P53 Protein 2 (ASPP2) (human (endogenous in AGS and MKN45)) (UniProt Q13625)
T1 sequence: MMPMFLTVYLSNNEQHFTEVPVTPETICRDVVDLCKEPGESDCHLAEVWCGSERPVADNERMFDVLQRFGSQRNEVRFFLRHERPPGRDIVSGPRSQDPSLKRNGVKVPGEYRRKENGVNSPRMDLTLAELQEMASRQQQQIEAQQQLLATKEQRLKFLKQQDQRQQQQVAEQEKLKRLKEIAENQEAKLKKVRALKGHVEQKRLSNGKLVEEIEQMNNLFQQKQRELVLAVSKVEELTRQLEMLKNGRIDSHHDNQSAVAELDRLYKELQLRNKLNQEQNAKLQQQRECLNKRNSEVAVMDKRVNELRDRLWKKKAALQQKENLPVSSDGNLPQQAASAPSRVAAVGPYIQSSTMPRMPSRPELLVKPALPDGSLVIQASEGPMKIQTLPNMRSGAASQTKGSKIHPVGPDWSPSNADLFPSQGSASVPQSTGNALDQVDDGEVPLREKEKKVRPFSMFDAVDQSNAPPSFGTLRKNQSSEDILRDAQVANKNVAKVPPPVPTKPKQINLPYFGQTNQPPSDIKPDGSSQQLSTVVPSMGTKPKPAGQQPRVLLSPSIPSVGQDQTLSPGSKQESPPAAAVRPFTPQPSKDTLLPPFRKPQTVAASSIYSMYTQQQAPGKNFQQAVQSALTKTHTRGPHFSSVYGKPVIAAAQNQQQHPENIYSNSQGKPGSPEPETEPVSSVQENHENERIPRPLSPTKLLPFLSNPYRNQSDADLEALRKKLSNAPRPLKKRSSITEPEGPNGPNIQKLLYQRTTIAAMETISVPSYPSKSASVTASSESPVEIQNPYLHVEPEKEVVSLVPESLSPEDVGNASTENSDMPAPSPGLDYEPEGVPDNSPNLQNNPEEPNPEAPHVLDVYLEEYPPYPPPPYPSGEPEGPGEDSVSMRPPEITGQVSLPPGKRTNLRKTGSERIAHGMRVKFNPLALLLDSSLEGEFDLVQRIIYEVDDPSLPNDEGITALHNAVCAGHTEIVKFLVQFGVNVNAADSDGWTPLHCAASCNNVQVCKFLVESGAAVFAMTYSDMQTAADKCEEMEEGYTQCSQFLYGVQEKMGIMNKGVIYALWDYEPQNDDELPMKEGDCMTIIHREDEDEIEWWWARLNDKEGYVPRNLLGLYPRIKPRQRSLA

Chains of the proteins cited; added tags and fusions are not shown.
UniProt Q09472: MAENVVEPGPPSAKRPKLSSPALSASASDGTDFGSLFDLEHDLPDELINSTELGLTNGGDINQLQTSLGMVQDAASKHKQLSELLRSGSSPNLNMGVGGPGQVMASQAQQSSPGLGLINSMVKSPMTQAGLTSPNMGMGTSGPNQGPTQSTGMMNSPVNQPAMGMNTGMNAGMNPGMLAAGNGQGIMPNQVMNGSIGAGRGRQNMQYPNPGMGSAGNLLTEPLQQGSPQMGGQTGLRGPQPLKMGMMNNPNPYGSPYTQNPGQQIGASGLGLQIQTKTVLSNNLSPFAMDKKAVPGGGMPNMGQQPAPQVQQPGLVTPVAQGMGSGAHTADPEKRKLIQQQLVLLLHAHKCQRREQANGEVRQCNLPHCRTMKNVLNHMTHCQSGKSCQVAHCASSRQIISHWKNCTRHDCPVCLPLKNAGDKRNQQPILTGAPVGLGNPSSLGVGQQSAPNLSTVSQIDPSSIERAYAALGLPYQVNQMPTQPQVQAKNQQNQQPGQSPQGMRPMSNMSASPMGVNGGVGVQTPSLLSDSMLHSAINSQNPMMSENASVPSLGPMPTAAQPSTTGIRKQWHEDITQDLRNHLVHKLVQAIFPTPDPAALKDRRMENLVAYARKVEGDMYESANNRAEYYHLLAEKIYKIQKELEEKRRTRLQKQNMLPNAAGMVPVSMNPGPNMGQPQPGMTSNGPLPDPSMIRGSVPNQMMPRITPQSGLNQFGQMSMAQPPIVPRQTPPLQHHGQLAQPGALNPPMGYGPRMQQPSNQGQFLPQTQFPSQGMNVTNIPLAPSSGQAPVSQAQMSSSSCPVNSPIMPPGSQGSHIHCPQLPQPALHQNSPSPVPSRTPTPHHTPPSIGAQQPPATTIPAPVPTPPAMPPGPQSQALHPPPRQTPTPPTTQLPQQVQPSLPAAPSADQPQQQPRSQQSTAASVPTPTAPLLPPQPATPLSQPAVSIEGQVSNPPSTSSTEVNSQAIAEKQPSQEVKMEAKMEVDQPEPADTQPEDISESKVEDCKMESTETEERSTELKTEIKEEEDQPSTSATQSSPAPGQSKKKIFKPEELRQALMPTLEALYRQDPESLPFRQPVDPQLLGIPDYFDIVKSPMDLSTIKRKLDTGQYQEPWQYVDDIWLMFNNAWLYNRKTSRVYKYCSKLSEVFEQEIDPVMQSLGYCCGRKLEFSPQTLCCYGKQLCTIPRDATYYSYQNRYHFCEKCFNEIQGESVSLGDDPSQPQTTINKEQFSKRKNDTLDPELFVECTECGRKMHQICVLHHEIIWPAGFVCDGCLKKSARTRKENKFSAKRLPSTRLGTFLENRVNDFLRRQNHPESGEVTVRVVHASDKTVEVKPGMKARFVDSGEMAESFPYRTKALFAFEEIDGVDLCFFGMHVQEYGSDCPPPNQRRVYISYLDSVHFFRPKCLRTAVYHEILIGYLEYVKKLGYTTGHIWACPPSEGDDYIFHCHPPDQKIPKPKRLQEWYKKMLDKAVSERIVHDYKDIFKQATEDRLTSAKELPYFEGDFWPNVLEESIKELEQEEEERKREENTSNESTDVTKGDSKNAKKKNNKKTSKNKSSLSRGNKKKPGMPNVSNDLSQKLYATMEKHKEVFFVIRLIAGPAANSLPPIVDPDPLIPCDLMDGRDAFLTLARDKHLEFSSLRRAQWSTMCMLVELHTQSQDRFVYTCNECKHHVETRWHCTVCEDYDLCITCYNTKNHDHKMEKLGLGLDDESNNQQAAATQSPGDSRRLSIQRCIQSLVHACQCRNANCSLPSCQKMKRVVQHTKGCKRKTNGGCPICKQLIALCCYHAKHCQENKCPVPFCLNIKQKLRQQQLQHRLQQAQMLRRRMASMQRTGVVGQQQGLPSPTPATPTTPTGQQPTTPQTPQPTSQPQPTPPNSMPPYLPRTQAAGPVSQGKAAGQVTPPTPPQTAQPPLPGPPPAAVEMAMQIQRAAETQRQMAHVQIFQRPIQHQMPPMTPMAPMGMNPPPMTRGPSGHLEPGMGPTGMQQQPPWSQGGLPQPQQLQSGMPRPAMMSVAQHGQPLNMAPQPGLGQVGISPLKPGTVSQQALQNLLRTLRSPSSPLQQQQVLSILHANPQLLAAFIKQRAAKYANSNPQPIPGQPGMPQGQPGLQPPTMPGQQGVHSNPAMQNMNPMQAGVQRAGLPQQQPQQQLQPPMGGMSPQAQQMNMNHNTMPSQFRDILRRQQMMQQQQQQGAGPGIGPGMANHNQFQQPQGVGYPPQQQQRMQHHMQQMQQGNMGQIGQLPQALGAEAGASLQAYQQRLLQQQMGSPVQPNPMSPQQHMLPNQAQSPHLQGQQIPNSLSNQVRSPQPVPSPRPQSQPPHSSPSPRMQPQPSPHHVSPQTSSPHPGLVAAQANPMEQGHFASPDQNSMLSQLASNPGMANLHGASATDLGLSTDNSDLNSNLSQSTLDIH
UniProt P35638: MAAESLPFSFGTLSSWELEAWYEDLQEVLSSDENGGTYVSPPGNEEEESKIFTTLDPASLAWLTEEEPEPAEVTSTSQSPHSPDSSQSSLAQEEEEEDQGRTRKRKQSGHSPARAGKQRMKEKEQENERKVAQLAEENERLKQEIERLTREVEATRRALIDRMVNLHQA

B1: Apoptosis-Stimulating of P53 Protein 2 (ASPP2) (protein, UniProt Q13625 1-1128)
chain: MMPMFLTVYLSNNEQHFTEVPVTPETICRDVVDLCKEPGESDCHLAEVWCGSERPVADNERMFDVLQRFGSQRNEVRFFLRHERPPGRDIVSGPRSQDPSLKRNGVKVPGEYRRKENGVNSPRMDLTLAELQEMASRQQQQIEAQQQLLATKEQRLKFLKQQDQRQQQQVAEQEKLKRLKEIAENQEAKLKKVRALKGHVEQKRLSNGKLVEEIEQMNNLFQQKQRELVLAVSKVEELTRQLEMLKNGRIDSHHDNQSAVAELDRLYKELQLRNKLNQEQNAKLQQQRECLNKRNSEVAVMDKRVNELRDRLWKKKAALQQKENLPVSSDGNLPQQAASAPSRVAAVGPYIQSSTMPRMPSRPELLVKPALPDGSLVIQASEGPMKIQTLPNMRSGAASQTKGSKIHPVGPDWSPSNADLFPSQGSASVPQSTGNALDQVDDGEVPLREKEKKVRPFSMFDAVDQSNAPPSFGTLRKNQSSEDILRDAQVANKNVAKVPPPVPTKPKQINLPYFGQTNQPPSDIKPDGSSQQLSTVVPSMGTKPKPAGQQPRVLLSPSIPSVGQDQTLSPGSKQESPPAAAVRPFTPQPSKDTLLPPFRKPQTVAASSIYSMYTQQQAPGKNFQQAVQSALTKTHTRGPHFSSVYGKPVIAAAQNQQQHPENIYSNSQGKPGSPEPETEPVSSVQENHENERIPRPLSPTKLLPFLSNPYRNQSDADLEALRKKLSNAPRPLKKRSSITEPEGPNGPNIQKLLYQRTTIAAMETISVPSYPSKSASVTASSESPVEIQNPYLHVEPEKEVVSLVPESLSPEDVGNASTENSDMPAPSPGLDYEPEGVPDNSPNLQNNPEEPNPEAPHVLDVYLEEYPPYPPPPYPSGEPEGPGEDSVSMRPPEITGQVSLPPGKRTNLRKTGSERIAHGMRVKFNPLALLLDSSLEGEFDLVQRIIYEVDDPSLPNDEGITALHNAVCAGHTEIVKFLVQFGVNVNAADSDGWTPLHCAASCNNVQVCKFLVESGAAVFAMTYSDMQTAADKCEEMEEGYTQCSQFLYGVQEKMGIMNKGVIYALWDYEPQNDDELPMKEGDCMTIIHREDEDEIEWWWARLNDKEGYVPRNLLGLYPRIKPRQRSLA

Key:
[1] = molecular target: T1, Apoptosis-Stimulating of P53 Protein 2 (ASPP2) (human (endogenous in AGS and MKN45)); experiment: co-IP; endogenous proteins; lysates of MKN45 cells infected with H. pylori at 90 MOI for the indicated times; antibodies against ASPP2 on protein G beads, 16 h; immunoblot
[2] = molecular target: p300 (human (endogenous in AGS and MKN45)) (UniProt Q09472); experiment: co-IP; endogenous proteins; lysates of MKN45 cells infected with H. pylori at 90 MOI for the indicated times, then 10 μM MG132 for 3 h; antibodies against p300 or CHOP on protein A beads, 16 h; immunoblot
[3] = molecular target: T1, Apoptosis-Stimulating of P53 Protein 2 (ASPP2) (human (endogenous in AGS and MKN45)); experiment: co-IP; endogenous proteins; lysates of AGS cells (shCtrl and shASPP2) infected with H. pylori at 30 MOI for 8 h (Figure 5(a)) or for the indicated times (Figure 6(b)); antibodies against ASPP2 or CHOP on protein G beads, 16 h, 4°C; immunoblot
[4] = molecular target: p300 (human (endogenous in AGS and MKN45)) (UniProt Q09472); experiment: co-IP; endogenous proteins; lysates of AGS cells (shCtrl and shASPP2) infected with H. pylori at 30 MOI for 8 h (Figure 5(b)) or for the indicated times (Figure 6(c)), then 10 μM MG132 for 3 h; antibodies against p300 or CHOP on protein A beads, 16 h; immunoblot
[5] = molecular target: CHOP (human (endogenous in AGS and MKN45)) (UniProt P35638); experiment: co-IP; endogenous proteins; lysates of AGS cells (shCtrl and shASPP2) infected with H. pylori at 30 MOI for 8 h (Figure 5(a)) or for the indicated times (Figure 6(b)); antibodies against ASPP2 or CHOP on protein G beads, 16 h, 4°C; immunoblot

| Molecule | binding [1] | binding [2] | binding [3] | binding [4] | binding [5] |
| --- | --- | --- | --- | --- | --- |
| CHOP (from UniProt P35638 1-169) | binds | binds | binds | binds |  |
| B1 |  |  |  |  | binds |
